In patent publication US20240423246A1, “RAPAMYCIN FOR INCREASED MILK PRODUCTION” (THE STATE OF ISRAEL, MINISTRY OF AGRICULTURE & RURAL …, priority 2023, published 2024):
For at least one compound, name, drawing or mass did not settle the structure.

Legend:
mammary epithelial cells = assay: Mammary cell proliferation by PCNA staining after rapamycin followed by estrogen and progesterone; assay type: in vivo, bovine (Holstein calves)
Experimental: FIGS. 6A-6C: (FIG. 6A) lower and (FIG. 6B) higher magnifications of PCNA-stained parenchymal cells and counterstained with hematoxylin. S, small ducts; L, large ducts. Bar=50 μm. (FIG. 6C) PCNA+ cells were analyzed in total (left plot), basal (middle plot) and luminal cell (right plot) populations of the small and large ducts. Six independent microscopic fields (X10 magnification) from each of the six glands treated with vehicle and six glands treated with rapamycin were analyzed. Overall, 127 ducts and 10,619 cells, and 122 ducts and 9999 cells were analyzed in the vehicle-treated and rapamycin-treated glands, respectively. ** P<0.01, *** P<0.001.
Three-month-old female Holstein calves (˜90 kg body weight [BW]) that were raised on the Volcani Center's experimental farm were used in these experiments. During the experimental periods, each mammary gland was administered via the teat canal with 2 mL of vehicle, composed of sterile PBS containing 10% polyethylene glycol (Sigma, St. Louis, MO) and 10% Tween 80 (Sigma). In individual experiments, the vehicle was supplemented with Evans blue to analyze the penetration of this solution into the mammary epithelium, or with rapamycin to analyze its effect on cellular activities. The vehicle was administered using a sterile 22G IV cannula (Deltaven, Viadana, (MN) Italy), cut to ˜1.5 cm and inserted (without the needle) into the teat canal. […]

[1] = biological target: mammalian target of rapamycin (mTOR) (Bos taurus, UniProt E1BFB4); assay: S6 phosphorylation in mammary parenchyma after single intramammary rapamycin administration (immunoblot, immunohistochemistry); assay type: in vivo, bovine (Holstein calves)
Experimental: Three-month-old female Holstein calves (˜90 kg body weight [BW]) that were raised on the Volcani Center's experimental farm were used in these experiments. During the experimental periods, each mammary gland was administered via the teat canal with 2 mL of vehicle, composed of sterile PBS containing 10% polyethylene glycol (Sigma, St. Louis, MO) and 10% Tween 80 (Sigma). In individual experiments, the vehicle was supplemented with Evans blue to analyze the penetration of this solution into the mammary epithelium, or with rapamycin to analyze its effect on cellular activities. The vehicle was administered using a sterile 22G IV cannula (Deltaven, Viadana, (MN) Italy), cut to ˜1.5 cm and inserted (without the needle) into the teat canal. […] In the relevant experiments, estrogen (0.1 mg/kg per day, Sigma) and progesterone (0.25 mg/kg per day, Sigma) were administered following the rapamycin treatment by daily subcutaneous injections for 4 consecutive days. The design of the studies was based on the distinct morphology and activity of the individual “quarters” (i.e., glands) of the bovine udder which can be individually affected. Thus, in studies analyzing the rapamycin effects, front or rear glands of each side of the calf served as internal controls for the other two rapamycin-administered glands. The dye Evans blue was added to one of the vehicle-treated glands to follow its penetration into the epithelial morphology in close and far regions from the teat (FIG. 1).
Immunohistochemistry was performed on the 5-μm paraffin-embedded sections after antigen retrieval. The reaction with primary antibodies against β-casein (Barash lab), pS6 (Cell signaling Inc.), CK18 (GeneTex), and PCNA (BioLegend), was initiated by blocking the sections with 10% bovine serum albumen and 5% goat serum in 0.1% PBST for 1 h prior to overnight incubation with the first antibody at 4° C. Sections were washed and incubated with N-Histofine (Nichirei Biosciences, Tokyo, Japan) for 30 min at room temperature. Signals were generated with 3,3-diaminobenzidine (DAB) substrate (Vector Laboratories, Burlingame, CA).
Proteins from the parenchymal region of each mammary gland were extracted with RIPA buffer containing 10 mM Tris-HCl pH 7.5, 150 mM NaCl, 0.1% SDS, 1% sodium deoxycholate and 5 mM EDTA (Sigma), protease inhibitor cocktail and phosphatase inhibitor cocktail II (both from Sigma). Equal amounts of protein, determined by QPRO-BCA Kit Standard (Cyanagen, Bologna, Italy) according to the manufacturer's protocol, were subjected to SDS-PAGE. Fractionated proteins were transferred to nitrocellulose filters and the uploading of equal amounts of protein per sample was confirmed by staining the blot with Ponceau S (Sigma). The expression levels of phosphorylated S6 (pS6) and β-actin were determined according to the signals generated with their respective antibodies. Signals were generated with WESTAR Supernova (Cyanagen, Bologna, Italy) combined with Super Signal chemiluminescent substrate (Thermo Fisher Scientific), and detected in a Syngene analyzer (Cambridge, UK).
To determine an effective concentration and administration interval, mammalian target of rapamycin (mTOR) responsiveness to rapamycin administration was studied in parenchymal regions that were close to and far from the teat. Rapamycin was delivered to the parenchymatic region of two calves at two concentrations (4.16 or 8.32 mg/gland per day). The calves were sacrificed 24 h or 48 h later and the udders were removed. […] Note that complete repression of mTOR activity was avoided in these experiments to preserve the self-renewing capability of the epithelial stem cells.

β-casein = β-casein synthesis after 3 weeks of skip-a-day intramammary rapamycin administration (immunoblot, immunohistochemistry); assay type: in vivo, bovine (Holstein calves); conditions: 3 weeks skip-a-day, 8.32 mg/gland per day
Stat5 = assay: Relative gene expression of luminal progenitor marker in treated glands (real-time PCR); assay type: in vivo, bovine (Holstein calves); conditions: 3 weeks skip-a-day rapamycin; not significant at P<0.05
[2] = test system: aS1-casein, β-casein, BLG and α-lactalbumin; assay: Milk protein gene expression in rapamycin-treated vs vehicle-treated glands (real-time PCR); assay type: in vivo, bovine (Holstein calves)
[3] = test system: bovine mammary epithelial stem cell population; assay: Propagation rate of cultured cells from vehicle- and rapamycin-treated glands; assay type: cell-based; conditions: day 30 of culture
Experimental: For propagation rate, cells from each treatment were seeded in 96-well cell-culture plates (Corning, Corning, NY) at a density of 10,000 cells/well and cultured in mammary medium composed of DMEM-F12 medium containing 5% FBS, hydrocortisone ([…], Sigma), insulin ([…], Sigma), gentamicin ([…], Biological Industries), streptomycin and penicillin ([…] and 100 U/ml, respectively), hEGF (10 ng/ml, Merck, Darmstadt, Germany), hFGF2 (10 ng/ml, Merck), heparin (4 mg/ml, Merck), cholera toxin (10 ng/ml, Sigma) and B27 ([…], Invitrogen, Carlsbad, CA) (10) for the indicated period.
Rapamycin's effect on cell-propagation rate was analyzed in cultures from individual vehicle- and rapamycin-treated glands (FIG. 4A). This method produces a clear and significant distinction of the bovine mammary epithelial stem cell population from the more differentiated ones.

[4] = 24 h after infusion, close to nipple, rapamycin 4.16 mg
[5] = 24 h after infusion, close to nipple, rapamycin 8.32 mg
[6] = 48 h after infusion, close to nipple, rapamycin 4.16 mg
[7] = 48 h after infusion, close to nipple, rapamycin 8.32 mg
[8] = 48 h after infusion, far from nipple, rapamycin 4.16 mg
[9] = 48 h after infusion, far from nipple, rapamycin 8.32 mg

## CO[C@H]1C[C@@H]2CC[C@@H](C)[C@@](O)(O2)C(=O)C(=O)N2CCCC[C@H]2C(=O)O[C@H]([C@H](C)C[C@@H]2CC[C@@H](O)[C@H](OC)C2)CC(=O)[C@H](C)/C=C(\C)[C@@H](O)[C@@H](OC)C(=O)[C@H](C)C[C@H](C)/C=C/C=C/C=C/1C [Rapamycin]
Mammary epithelial cells; large ducts only
  rate of PCNA+ luminal cells: markedly higher rate
Mammary epithelial cells; small and large ducts
  basal cell proliferation (PCNA+): induced
[1]; 8.32 mg/2 mL, regions close to and far from the teat
  time for which suppression of S6 phosphorylation was maintained: at least 48 h
[1]; [4]
  pS6/S6: 0.31
  pS6/β-actin: 1.29
[1]; [5]
  pS6/S6: 0.39
  pS6/β-actin: 1.08
[1]; [6]
  pS6/S6: 0.54
  pS6/β-actin: 2.03
[1]; [7]
  pS6/S6: 0.58
  pS6/β-actin: 2.61
[1]; [8]
  pS6/S6: 0.71
  pS6/β-actin: 2.14
[1]; [9]
  pS6/S6: 0.37
  pS6/β-actin: 1.77
β-casein
  effect on β-casein synthesis: not associated with any detectable effect
Stat5
  Stat5 expression vs vehicle-treated glands: expressed at lower levels
[2]; calf #1, highest endogenous milk protein expression
  improvement in milk protein gene expression: almost no improvement
[2]; calf #3
  effect on aS1-casein and BLG expression: modest effect
[3]
  number of cells, rapamycin-treated vs vehicle-treated glands: equalized
